Record: PubChem BioAssay AID1224830 (NIAID, 2016)
The deposit covers about 18,000 reagents; below is a random part of them. Of all reagents, about 2,900 (16%) are marked active. 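Calls are made per well; low scores hint the gene aids the LPS response, high scores that it dampens it.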 Entries without a mark were called inactive. Reagents against one gene are numbered here. Repeated entries: four replicate wells of each siRNA pool.

Purpose: 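Host factors that control LPS-induced TNF expression in human macrophages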 (primary screen)
Cells: human THP-1 monocytic leukaemia cells, TNF dual-luciferase reporter clone, PMA-differentiated to macrophage-like cells
Reagent: siRNA pool against human genes, 50 nM
Time to read-out: LPS for 4 h, given about 3 days after siRNA transfection
Treatment: bacterial LPS (TLR4 ligand), 10 ng/ml
Detection: 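Ratio of firefly to renilla light, scaled to the plate median and expressed as a robust z-score per replicate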
Direction: TNF reporter robust z-score: higher = stronger TNF reporter response to LPS
Hit rule: 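Each well counts as active if its z-score is over 2.8 or under -1.5; controls are left without a call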

gene	reagent	TNF reporter robust z-score
THAP3 (THAP domain containing 3)	1	-0.66
THAP3 (THAP domain containing 3)	1	-0.82
THAP3 (THAP domain containing 3)	1	-0.13
THAP3 (THAP domain containing 3)	1	-0.37
SMOC2 (SPARC related modular calcium binding 2)	1	-1.13
SMOC2 (SPARC related modular calcium binding 2)	1	0.45
SMOC2 (SPARC related modular calcium binding 2)	1	-0.08
ENHO (energy homeostasis associated)	1	0.17
ENHO (energy homeostasis associated)	1	0.59
ENHO (energy homeostasis associated)	1	-0.42
ENHO (energy homeostasis associated)	1	0.35
EAF2 (ELL associated factor 2)	1	-0.59
EAF2 (ELL associated factor 2)	1	1.24
EAF2 (ELL associated factor 2)	1	1.16
EAF2 (ELL associated factor 2)	1	0.81
ZNF124 (zinc finger protein 124)	1	0.1
ZNF124 (zinc finger protein 124)	1	2.42
ZNF124 (zinc finger protein 124)	1	0.08
ZNF124 (zinc finger protein 124)	1	-0.81
KIF18A (kinesin family member 18A)	1	-1.3
KIF18A (kinesin family member 18A)	1	-0.23
KIF18A (kinesin family member 18A)	1	-0.83
KIF18A (kinesin family member 18A)	1	-1.16
GPATCH11 (G-patch domain containing 11)	1	-1.06
GPATCH11 (G-patch domain containing 11)	1	-1.07
GPATCH11 (G-patch domain containing 11)	1	-1.62 (active)
GPATCH11 (G-patch domain containing 11)	1	-1.25

Next part; the last 2 above are carried over.
gene	reagent	TNF reporter robust z-score
GPATCH11 (G-patch domain containing 11)	1	-1.62 (active)
GPATCH11 (G-patch domain containing 11)	1	-1.25
SETMAR (SET and mariner transposase domain methyltransferase)	1	-0.76
SETMAR (SET and mariner transposase domain methyltransferase)	1	-0.96
SETMAR (SET and mariner transposase domain methyltransferase)	1	-1
SETMAR (SET and mariner transposase domain methyltransferase)	1	-0.85
VPS54 (VPS54 subunit of GARP complex)	1	-1.34
VPS54 (VPS54 subunit of GARP complex)	1	-1.55 (active)
VPS54 (VPS54 subunit of GARP complex)	1	-1.71 (active)
VPS54 (VPS54 subunit of GARP complex)	1	-1.57 (active)
ATP11B (ATPase phospholipid transporting 11B (putative))	1	0.89
ATP11B (ATPase phospholipid transporting 11B (putative))	1	1.7
ATP11B (ATPase phospholipid transporting 11B (putative))	1	1.07
ATP11B (ATPase phospholipid transporting 11B (putative))	1	1.43
DDX56 (DEAD-box helicase 56)	1	0.22
DDX56 (DEAD-box helicase 56)	1	1.17
DDX56 (DEAD-box helicase 56)	1	0.09
DDX56 (DEAD-box helicase 56)	1	1.35
AGAP4 (ArfGAP with GTPase domain, ankyrin repeat and PH domain 4)	1	-0.06
AGAP4 (ArfGAP with GTPase domain, ankyrin repeat and PH domain 4)	1	-0.16
AGAP4 (ArfGAP with GTPase domain, ankyrin repeat and PH domain 4)	1	-0.38
AGAP4 (ArfGAP with GTPase domain, ankyrin repeat and PH domain 4)	1	0.47
AGAP4 (ArfGAP with GTPase domain, ankyrin repeat and PH domain 4)	2	0.19
AGAP4 (ArfGAP with GTPase domain, ankyrin repeat and PH domain 4)	2	-0.37
AGAP4 (ArfGAP with GTPase domain, ankyrin repeat and PH domain 4)	2	-1.07
AGAP4 (ArfGAP with GTPase domain, ankyrin repeat and PH domain 4)	2	0.87
